Test results: PubChem BioAssay AID1508600 (Functional Genomics Laboratory (NCATS/FGL), 2020)
Out of some 53,000 sequences screened, about 3,700 (7%) were called active.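 The calls were made as follows: active = gene knockdowns whose robust z-score for IL-1 alpha signal is at least 2 or at most -2, so actives lie on both sides; inactive = the rest.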 Some of the results follow.

Experiment: Components of the Cytosolic LPS Sensing Pathway: Gene Identification via Genome-wide siRNA Screen;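 also: robust z of the log signal after scaling to non-targeting control siRNA wells of the plate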
Details: RAW264.7 macrophages, IL-1a HTRF, actives lie on both sides, screened at 100 nM (by protocol), cells primed 5 h with Pam3CSK4 first
Outline: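 Read-out: IL-1a HTRF on supernatant, divided by plate negative-control median ×100, log-transformed and converted to robust z-score. Cells were RAW264.7 given 100 nM siRNA, Pam3CSK4-primed 5 hours, then LipidA-transfected 24 hour.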

z-score, active:
GGUGCAAGUGCAGUUUCAATT against Fxyd6 2.38, GGAGCUUCAAGGUCUGUCGTT against Tmc6 -2.65, GCUCAAACGAAAUGAUUCATT against Gys2 2.01, GGCCUGUCCAAAGAAGUGATT against E2f3 2.2, GGCACGAUGGUUCAUCCUUTT against Plek2 -2.01, GGGCUACAAGAAAAAGUAUTT against Krt85 2.69, GCAACUCAGCUGUUGUGAGTT against Ifitm2 2.99, GGUGAUGAUGAUGGGCAACTT against Cdkn2a 2.02, CGAGGAGCCUGAAAUAUGGTT against Exosc2 -2.42, GGUACCUAUGCCAGUUUUGTT against Aqp12 2.89, GGGUGAAUUUUGUUUUUGUTT against Kcnj14 3.05, CCUAUAUCAUCAUGGUUUGTT against Tmx1 2.4, GGAGCAGUAUAUCCUACAUTT against Olfr510 2.82, CGGUGCGAUCUCUCAAAGUTT against Cryba4 2.97, GCAAUAUGUGACAAACUUCTT against Ptpn22 2.06, GCACUCUCUACUCUAUUAATT against Ackr2 2.68, GGUCCCAUUCAGUGUGUGUTT against Cdk10 2.98

z-score, inactive:
CCCAAGCAAAUGGUGUAAUTT against Rab5a 0.412, GGACAAACUAGCAACCACUTT against Map7 -0.309, CCUUGUAGUAAUAGGGAUGTT against Olfr116 0.681, CGCAGGAUCUUAAAGAGCATT against Naga 0.983, GCUCGUCAGCAGUAAGAAUTT against Nmbr 0.295, GCAUUAACUGCAUUGAGCATT against Ccn3 -1.19, GCGGGACUGGAUAAUAAACTT against Orc2 0.201, GCCUGAGCUUUACAAGCAGTT against Syt6 -0.661, CGGAACGAUCCGGAACAUCTT against Idh2 0.627, CGUAUUUAUUGACUCACUATT against Klhl17 0.0456, AUGACUAACAUUUUCCACCTT against Tpbpb 0.169, GGAUUCUGAUCUUUGGUGUTT against Tmem130 0.482, GGGAUCUAAGAAAGCCAUCTT against H2bc3 0.429, GGACUGCUGAACUUGCUCATT against Ccdc28b -1.23, GGAGAGAUGAUACUGUUGGTT against Olfr1295 -0.197, GCAUGCUAGAAGCUAAAAATT against Golga3 1.48, GGAGAACGAGUUGUAUAGCTT against Dok2 -0.391, GGGCUUAUCUAUGUCCUUCTT against Olfr59 0.901, GCGAGUGAUAAGACAGCCATT against Map6d1 0.783, GCAAGCUUAUAUGUUUGACTT against Ggh 1.06, CCGUGAUAACAACAUUUGUTT against Olfr750 -0.833, GGAGAGAAACUGCGUGUAATT against Sla 1.46, CCCGAACAGAGGAUCGAAATT against Cxadr 0.071, GCCCAAACAUAUUAAACUUTT against Ubap2 0.416, GGGAGGUUCCUAUUGAAGGTT against Unc5d -0.304, GGAACAUAGAUGCGUGUGGTT against Rprm -0.913, CCUUAGAGAGUAUGAUUAUTT against 4933405O20Rik 1.17, GGUCUUCUAUAUCCUGUGCTT against Fbxo6 -0.823, GGGCUCAGAGACAAACUGUTT against Tnr 1.6, GGGUCAUUCUGUUACUCUUTT against Taar7a 1.17, CCUUCUAGUACAAAAGUUGTT against Jmjd1c 1.32, CGGAUUACUUUGUAAAGAUTT against Il17rd 0.838, GGCAUUUGACCCAGAAGACTT against Cdhr3 0.652, GGGAAUAUGUGAAACAGACTT against Syk -0.229, GGGCAGACCUAAUAGCUUATT against Cycs 0.707, GGAGAGUCACUGUUGAUGGTT against Sumf1 -0.292, GCACGGUCAGUUCUGUGAUTT against Fbxl6 -1.54, GGAAGUGGACUACUUCUUCTT against Olfr1511 -0.516, GGUGAAAAAGUCUGACUGUTT against Ptn -0.21, GGGCUUCUUUGCCACACUUTT against Rho 0.761, CCCUGUUAAGGAAUGCAAATT against Chil1 0.367, CCUUGCACUCAGUCCAUGATT against Gatc 0.132, GGACAGAAUCCUCUCCAGGTT against Tas1r1 -0.531, GGCAUCUUAUGGCCUAAAATT against Rnf31 -1.08, GGAGAAGAAUUCUUACAGGTT against Fbxo16 0.468, GGCGAGUUUUAUGUCAUUGTT against Fxr1 0.422, GGUUGGAAUUGUGCAAUAATT against Fbxo48 0.164, GGAGAAACGCAAGAAACGUTT against Zrsr1 -0.28, GGAGAUACCGGGAAUCCAATT against Rpl19 0.146, GGCGAGAGAGAUGAGUAAATT against Smim3 -1.63, GGGUAAAUAUGUGGAAAACTT against Zfp503 -0.283, CCUCAUUGUUUUAUACCCUTT against Olfr1140 0.309, GGAACAUAUUUAUUGGUGATT against Nipal2 0.372, CGUGCAGAGGUGGUACCAATT against Nsun5 0.0204, CCUUGCCUUUACUACCAGUTT against Olfr15 -0.187, GUGGCUAUCGGCACAACAUTT against Gpha2 0.604, GGAAGGUACUCUGAUGGAATT against Ptpn13 1.36, GGAACUACCUCUUCAGACUTT against Sema5b 0.756, CCGCUUCCAUCACAACAGUTT against Zc3hav1 -0.819, GCCAACAAUUACGUAUCAATT against Papolg 0.755, GUAGUAGUCCUAGGUCUACTT against Spag8 0.936, CCUGGUUAAAGGUUAUCCATT against Commd7 -3.9e-05, GGCCUUUCUGGAGAAGAUGTT against Stfa3 -0.526, CGUUCAUAAUGACUCCGUUTT against Slc39a10 1.78, GGGCAAAUGAUAUAAGGAUTT against Ndufa12 -0.585, GGAAUUUGUUCUCUUAUCGTT against Anapc1 -0.541, GGACAAAGUGGUUAUGUGGTT against Rims1 -1.84, GAUGUACGAGAGCUUAGCATT against Uqcc2 -1.14, GCUAUAGUUACUAAACUACTT against Flt1 -0.0427, GGACGUGUUCGGAAACCUATT against Psmc3ip 0.134, GCUAAUCCAGGACUGUUUATT against Trim14 -1.66, GGAAGAAAAACUGAAGAGATT against Ctsr 0.63, GGAAAUGAGUCAACUGUACTT against Pappa 0.0401, GCUCAUGGAUACGUCACUATT against Map2k6 -0.975, CCAAUAACUCUAAAUAGGCTT against Trhr 0.308, GCUUCGUGUGCUUUACCUGTT against Lrrc24 0.503, GGUAAUCGUGUAUUCAUAUTT against Dph5 -0.327, GCAGACGAGUACCUAGAAATT against Gbp7 -0.334, GGUCAAACACAGUUCAAAGTT against Poglut3 1.75, GGAAGAGUGCGUUUACCUUTT against Rrp12 0.388, GCUCACAAUGCUACAUCAATT against Fam178b 0.0528, GCCAGGUCUGAAGAACUGUTT against Rap1b -0.261, GGUUUGGCAGAAGUGCAUGTT against Npff -0.801, GCACAACCAAUUACGUGGCTT against Gpnmb -0.149, UGCCAUGAGUCAGCUUUUGTT against Olfr1301 -0.536, GGCUUACUUCCAAAGACUUTT against Naalad2 0.0534, GGAUUCCAGAACAAACACATT against Plekhb2 -1.36, GGAGAAGAAGACCAAUGAGTT against Rabgef1 -1.35, CCCUAUACGACUAGCUCUGTT against Tmprss11f -0.48, GCGAUUGGCCCAAAAAUGCTT against Olfr1151 0.225, CCCACCUCAACAUGAGAACTT against Gsdme 0.605
